# PubChem BioAssay AID1224830 | NIAID | 2016
# Aim: 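Regulators of TLR4 signalling towards TNF-alpha in macrophage-like cells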 (primary screen)
# Cells: human THP-1 monocytic leukaemia cells, TNF dual-luciferase reporter clone, PMA-differentiated to macrophage-like cells
# Reagents: siRNA pool against human genes, 50 nM
# Timing: LPS for 4 h, given about 3 days after siRNA transfection
# Challenge: bacterial LPS (TLR4 ligand), 10 ng/ml
# Read-out: 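Ratio of firefly to renilla light, scaled to the plate median and expressed as a robust z-score per replicate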
# Scale: TNF reporter robust z-score: higher = stronger TNF reporter response to LPS
# Active means: 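Each well counts as active if its z-score is over 2.8 or under -1.5; controls are left without a call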
# The deposit covers about 18,000 reagents; shown is an unselected part. Of all reagents, about 2,900 (16%) were called active. 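Calls are made per well; low scores hint the gene aids the LPS response, high scores that it dampens it.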 A number with no mark means an inactive call. Repeated entries: four replicate wells of each siRNA pool.
target gene,TNF reporter robust z-score
NUMBL (NUMB like endocytic adaptor protein),-0.66
NUMBL (NUMB like endocytic adaptor protein),-0.99
NUMBL (NUMB like endocytic adaptor protein),-0.38
NUMBL (NUMB like endocytic adaptor protein),-1.53 (active)
EXD1 (exonuclease 3'-5' domain containing 1),0.42
EXD1 (exonuclease 3'-5' domain containing 1),-0.62
EXD1 (exonuclease 3'-5' domain containing 1),-0.13
EXD1 (exonuclease 3'-5' domain containing 1),-0.54
STBD1 (starch binding domain 1),1.13
STBD1 (starch binding domain 1),1.08
STBD1 (starch binding domain 1),1.69
STBD1 (starch binding domain 1),3.75 (active)
OLFML1 (olfactomedin like 1),2.18
OLFML1 (olfactomedin like 1),1.52
OLFML1 (olfactomedin like 1),2.34
OLFML1 (olfactomedin like 1),2.21
GZMH (granzyme H),-1.76 (active)
GZMH (granzyme H),-0.9
GZMH (granzyme H),-0.14
GZMH (granzyme H),0.24
HMGCLL1 (3-hydroxy-3-methylglutaryl-CoA lyase like 1),0.6
HMGCLL1 (3-hydroxy-3-methylglutaryl-CoA lyase like 1),0.94
HMGCLL1 (3-hydroxy-3-methylglutaryl-CoA lyase like 1),0.13
HMGCLL1 (3-hydroxy-3-methylglutaryl-CoA lyase like 1),0.57
WDR41 (WD repeat domain 41),0.65
WDR41 (WD repeat domain 41),1.04
WDR41 (WD repeat domain 41),2.13
WDR41 (WD repeat domain 41),2.06
TH (tyrosine hydroxylase),-0.04
TH (tyrosine hydroxylase),0.53
TH (tyrosine hydroxylase),1.09
TH (tyrosine hydroxylase),1.12
AWAT2 (acyl-CoA wax alcohol acyltransferase 2),1.77
AWAT2 (acyl-CoA wax alcohol acyltransferase 2),-0.06
AWAT2 (acyl-CoA wax alcohol acyltransferase 2),-0.25
AWAT2 (acyl-CoA wax alcohol acyltransferase 2),-0.88
CPA4 (carboxypeptidase A4),-0.29
CPA4 (carboxypeptidase A4),-0.04
CPA4 (carboxypeptidase A4),0.09
CPA4 (carboxypeptidase A4),2.31
MRPL12 (mitochondrial ribosomal protein L12),-1
MRPL12 (mitochondrial ribosomal protein L12),1.76
MRPL12 (mitochondrial ribosomal protein L12),2.09
MRPL12 (mitochondrial ribosomal protein L12),1.37
TCEANC2,-1.5
TCEANC2,-1.63 (active)
TCEANC2,-1.27
CCNT1 (cyclin T1),1.66
CCNT1 (cyclin T1),1.99
CCNT1 (cyclin T1),0.02
CCNT1 (cyclin T1),1.94
E2F1 (E2F transcription factor 1),0.22
E2F1 (E2F transcription factor 1),0.83
E2F1 (E2F transcription factor 1),0.75
E2F1 (E2F transcription factor 1),1.16
KIF19 (kinesin family member 19),-0.46
KIF19 (kinesin family member 19),3.88 (active)
KIF19 (kinesin family member 19),4.16 (active)
KIF19 (kinesin family member 19),0.2
MOGAT1 (monoacylglycerol O-acyltransferase 1),1
MOGAT1 (monoacylglycerol O-acyltransferase 1),0.99
MOGAT1 (monoacylglycerol O-acyltransferase 1),1.05
MOGAT1 (monoacylglycerol O-acyltransferase 1),1.59
MT4 (metallothionein 4),-1.12
MT4 (metallothionein 4),-1.05
MT4 (metallothionein 4),-0.06
MT4 (metallothionein 4),-0.01
RHOXF2 (Rhox homeobox family member 2),0.39
RHOXF2 (Rhox homeobox family member 2),-0.29
RHOXF2 (Rhox homeobox family member 2),-0.77
RHOXF2 (Rhox homeobox family member 2),-0.56
XKR7 (XK related 7),-0.99
XKR7 (XK related 7),-0.1
XKR7 (XK related 7),-0.61
XKR7 (XK related 7),-0.35

Records above with an active call, once more:
target gene,TNF reporter robust z-score
NUMBL (NUMB like endocytic adaptor protein),-1.53 (active)
STBD1 (starch binding domain 1),3.75 (active)
GZMH (granzyme H),-1.76 (active)
TCEANC2,-1.63 (active)
KIF19 (kinesin family member 19),3.88 (active)
KIF19 (kinesin family member 19),4.16 (active)
